Laboratory results: patent US20230116196A1, “METHOD OF TREATING CNS DISORDERS WITH NEU[…] GABAERGIC COMPOUNDS” (priority 2017, published 2023)

System: GABAA receptor α4 and β3 subunits
Experiment: Biotinylation: cell surface levels of GABAA receptor subunits in hippocampal slices
Assay type: cell-based, mouse
Conditions: 100 nM, acute hippocampal slices
Protocol: Hippocampi were dissected out of acute slices from 8 to 12 week old C57/Bl6 mice and lysed with […] including: 20 mM Tris-HCl, 150 mM NaCl, 5 mM EDTA, 10 mM NaF, 2 mM Na3VO4, 10 mM pyrophosphate, 0.1% SDS and 1% Triton after drug treatment. The β3 subunit was isolated using immunoprecipitation with β3 antibodies, after correction for protein content and the specific activity of labeling. Results were attained by SDS/PAGE followed by autoradiography (Abramian et al., 2010). For biotinylation experiments hippocampi were dissected out of acute slices from 8 to 12 week old C57/Bl6 mice and incubated in artificial cerebrospinal fluid (ACSF) described above at 30° C. for 1 h for recovery before experimentation. Slices were then placed on ice and incubated for 30 min with 1 mg/mL NHS-SS-biotin (Pierce). Excess biotin was removed by a 50 mM glycine quenching buffer, followed by washing of slices three times in ice-cold ACSF. The tissue was snap frozen on dry ice for 5 min, thawed at 4° C. and lysed. The lysates were solubilized with 2% Triton at 4° C. on a rotating wheel for 1 h. The insoluble material was removed by centrifugation, and 350-500 μg of protein lysate were incubated with NeutrAvidin beads (Pierce) for 18-24 h at 4° C. […] Blots were then quantified using the CCD-based ChemiDoc XRS ? system. […]

CN1C(=O)CN=C(c2ccccc2)c2cc(Cl)ccc21 [diazepam]
GABAA-β3-containing receptors at the plasma membrane / cell surface stability of the β3 subunit: did not affect
